Source: ChEMBL document CHEMBL3988442, “University of Dundee, Small-Polar-MMV Screening Library” (2021).

Amino acid sequences for entries named in this document (tags omitted). Residues count along the entry.
UniProt P9WNZ1, whole entry: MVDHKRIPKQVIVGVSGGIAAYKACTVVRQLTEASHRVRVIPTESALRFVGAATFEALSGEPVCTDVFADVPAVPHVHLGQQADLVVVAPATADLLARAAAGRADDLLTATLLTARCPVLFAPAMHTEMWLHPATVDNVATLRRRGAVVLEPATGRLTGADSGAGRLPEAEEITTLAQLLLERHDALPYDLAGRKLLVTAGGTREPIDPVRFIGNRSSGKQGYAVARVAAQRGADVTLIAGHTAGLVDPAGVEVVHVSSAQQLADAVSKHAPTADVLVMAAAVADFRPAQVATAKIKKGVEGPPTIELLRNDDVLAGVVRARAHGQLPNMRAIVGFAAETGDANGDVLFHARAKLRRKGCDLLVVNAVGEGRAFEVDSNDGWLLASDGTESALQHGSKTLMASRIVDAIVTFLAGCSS
UniProt A4I591, 1-473: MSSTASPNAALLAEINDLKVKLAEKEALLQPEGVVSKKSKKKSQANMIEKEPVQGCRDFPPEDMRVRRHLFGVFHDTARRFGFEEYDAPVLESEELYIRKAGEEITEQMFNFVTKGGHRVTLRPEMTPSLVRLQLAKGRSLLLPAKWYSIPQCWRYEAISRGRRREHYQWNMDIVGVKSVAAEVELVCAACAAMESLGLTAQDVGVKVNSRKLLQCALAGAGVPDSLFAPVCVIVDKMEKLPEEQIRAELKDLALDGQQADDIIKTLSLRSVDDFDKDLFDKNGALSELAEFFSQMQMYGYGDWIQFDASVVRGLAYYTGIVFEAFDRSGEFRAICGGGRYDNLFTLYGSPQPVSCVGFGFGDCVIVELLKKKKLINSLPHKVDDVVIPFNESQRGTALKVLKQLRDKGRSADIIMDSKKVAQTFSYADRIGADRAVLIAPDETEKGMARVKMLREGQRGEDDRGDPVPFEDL

CoaBC: 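Coenzyme A biosynthesis protein CoaBC, Mycobacterium tuberculosis (UniProt P9WNZ1). Enzyme assay of CoaBC with a phosphate dye (Biomol Green) read at 650 nm. Compounds at 30 µM. Direction is inferred from only a few compounds that gave an IC50; most scored high, so higher reads as stronger inhibition. Most strong results did not repeat in a second test. Of about 67,000 compounds tested this way, about 40 (0.06%) reached 50% or more in at least one test.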
LiHisRS: 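Histidine-tRNA ligase, Leishmania infantum (UniProt A4I591). Enzyme assay of histidyl-tRNA synthetase; the read-out is not stated. Concentration: 30 µM. Higher reads as stronger inhibition (inferred: compounds with an IC50 in retests scored well above the rest). The assay is labelled LdHisRS but filed under L. infantum. About 69,000 compounds were tested under these conditions; 0.6% (about 410) showed 50% or more at least once.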
Leishmania in macrophages: 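Cell assay of Leishmania donovani living inside macrophages; the read-out is not stated. Concentration: 30 µM. Direction is inferred from retests: higher values go with stronger inhibition. About 69,000 compounds were tested under these conditions; 1.5% (about 1,000) showed 50% or more at least once.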

Values are the deposited “Percent Effect”, in %.
The controls that fix the scale are not given in the record; negative values are as filed.
This is an unselected part of the compounds tested.
Two or more numbers in one place are separate tests of the same structure; such repeats can differ widely.

{"compound": "COc1ccc(OC)c(-n2cnnc2COC(C)C)c1", "CoaBC": 4.234, "LiHisRS": 15.15, "Leishmania in macrophages": 22.34}
{"compound": "COc1ccc(C2CC(=O)Oc3cc(C)[nH]c(=O)c32)cc1O", "stereo": "stereo not given", "CoaBC": 1.781, "LiHisRS": 15.38, "Leishmania in macrophages": 7.935}
{"compound": "CCc1cnc(C)nc1N1CCS(=O)(=O)CC1", "CoaBC": -0.4, "LiHisRS": 12.82, "Leishmania in macrophages": 1.025}
{"compound": "O=C(NCCNc1cncc(Br)c1)c1ccc(O)cc1", "LiHisRS": 42.5, "Leishmania in macrophages": 5.753}
{"compound": "CNC(=O)C1(N2CCC[C@H]2C(=O)NC2CC2)CCCCC1", "CoaBC": 6.095, "LiHisRS": 30.56}
{"compound": "O=C(O)C(F)(F)F.[H][C@@]12COC[C@]1(COCC(=O)N(C)C)CN(Cc1ccccc1)C2", "Leishmania in macrophages": 2.48}
{"compound": "CCc1nc(CN(C(C)=O)C2CCN(Cc3cnc(C)cn3)C2)no1", "stereo": "stereo not given", "CoaBC": -3.085, "LiHisRS": -30.34, "Leishmania in macrophages": -0.6693}
{"compound": "CCN(C)S(=O)(=O)N1C[C@@H]2CC[C@H](C1)N(Cc1cscn1)C2=O", "CoaBC": 1.707, "LiHisRS": 12.8}
{"compound": "Cc1noc(C)c1CN1CCOCC12CCN(c1cnccn1)CC2", "CoaBC": 2.723, "LiHisRS": 13.51}
{"compound": "CCCn1c(C)c(CC(=O)NCC(N)=O)c2c1CC(C)(C)CC2=O", "CoaBC": 3.046, "LiHisRS": 24.71, "Leishmania in macrophages": 5.907}
{"compound": "O=C(Cc1csc(N2CCNC2=O)n1)NC(c1ccccc1)C1CC1", "stereo": "stereo not given", "CoaBC": -4.348, "LiHisRS": 9.091, "Leishmania in macrophages": 9.324}
{"compound": "O=C(Nc1cnc(C2CC2)nc1)N1CCCC1", "CoaBC": -4.555, "LiHisRS": -3.125, "Leishmania in macrophages": -5.585}
{"compound": "O=C(CN1CCCCCC1=O)NC1CCc2nccn2C1", "stereo": "stereo not given", "CoaBC": 9.711, "LiHisRS": 10.96, "Leishmania in macrophages": -17.97}
{"compound": "Cc1cccc(CO[C@@H]2CC[C@H]3[C@H]2OCCN3Cc2ccoc2)n1", "CoaBC": 3.457, "LiHisRS": 13.64}
{"compound": "O=C(CNc1cccc(S(=O)(=O)C(F)F)c1)NCc1ccco1", "CoaBC": -10, "LiHisRS": 0, "Leishmania in macrophages": -21.01}
{"compound": "[H][C@]12C[C@@H](CN3CCCC3)N(C(C)C)[C@@]1([H])CCN(Cc1cnn(C)c1)C2", "Leishmania in macrophages": 11.25}
{"compound": "O=C(CCC1CCCO1)NCCc1ccccn1", "stereo": "stereo not given", "CoaBC": 2.525, "LiHisRS": 5.263, "Leishmania in macrophages": 24.33}
{"compound": "COCCn1ccc(NC(=O)Nc2cccc(C#N)c2)n1", "CoaBC": 9.895, "LiHisRS": 15.09, "Leishmania in macrophages": 23.13}
{"compound": "O=C(Cc1ccsc1)N1CCCC(c2cc(C(F)F)n3ncnc3n2)C1", "stereo": "stereo not given", "CoaBC": -2.451, "LiHisRS": -9.375, "Leishmania in macrophages": 4.658}
{"compound": "CCOCC1CN(S(=O)(=O)CC)Cc2cnn(CC3CC3)c21", "stereo": "stereo not given", "CoaBC": 2.589, "LiHisRS": 22.58}
{"compound": "[H][C@@]12CCCO[C@]1([H])[C@H](NS(C)(=O)=O)CN(Cc1cccc(C)n1)C2", "Leishmania in macrophages": 12.69}
{"compound": "CCO[C@@H]1CO[C@@]2(CCCN(S(=O)(=O)c3cccnc3)C2)C1", "CoaBC": 0.6435, "LiHisRS": 13.73}
{"compound": "CC1(C)CC(N(Cc2cccnc2)Cc2cccnc2)CC(C)(C)N1.O=C(O)CC(O)(CC(=O)O)C(=O)O", "Leishmania in macrophages": "17.33 and 7.068"}
{"compound": "CS(=O)(=O)NCc1cncc2c1CCN(C(=O)N1CCCC1)C2", "CoaBC": -4.562, "LiHisRS": 19.44}
{"compound": "CCc1ccccc1CNC(=O)CNCC(F)(F)F", "CoaBC": 13.43, "LiHisRS": 10.96, "Leishmania in macrophages": -74.72}
{"compound": "CN(C)CCCNC(=O)c1cc(-c2ccc3c(c2)CCO3)n[nH]1", "CoaBC": 1.768, "LiHisRS": 23.68, "Leishmania in macrophages": 6.544}
{"compound": "CNCc1cn(CC2CCN(Cc3cccs3)CC2)nn1", "CoaBC": -1.615, "LiHisRS": 4.167, "Leishmania in macrophages": 6.162}
{"compound": "CCS(=O)(=O)N1CCCC2(CCCN2Cc2cccc(Cl)c2)C1", "stereo": "stereo not given", "LiHisRS": 17.09}
{"compound": "CC(C)(C)c1nc(CN2CCC(c3nc4cc(Cl)ccc4o3)CC2)no1", "CoaBC": 7.036, "LiHisRS": 13.46, "Leishmania in macrophages": 5.687}
{"compound": "Cc1nc(CN2CCOCC3(CCN(c4cnccn4)CC3)C2)cs1", "CoaBC": 2.433, "LiHisRS": 22.22}
{"compound": "Cc1ccc(-c2nc(CCNC(=O)CCN3CCOC3=O)co2)cc1", "CoaBC": -3.52, "LiHisRS": 20.27, "Leishmania in macrophages": 26.93}
{"compound": "Cc1cc(NC(=O)c2ccc(F)cc2Cl)n(C)n1", "CoaBC": 14.73, "LiHisRS": 11.46, "Leishmania in macrophages": -15.56}
{"compound": "Cc1cc(C(=O)N2CC[C@H](N3CCOCC3)[C@H](CCCO)C2)c(C)n1C", "CoaBC": 15.03, "LiHisRS": 8.772, "Leishmania in macrophages": 35.99}
{"compound": "CC(CCc1ccc(O)cc1)NC1CCN(S(C)(=O)=O)CC1", "stereo": "stereo not given", "CoaBC": 1.961, "LiHisRS": 4.444, "Leishmania in macrophages": -10.92}
{"compound": "Cc1cc(NC(=O)NCC2COc3ccccc3C2)no1", "stereo": "stereo not given", "CoaBC": -1.567, "LiHisRS": 8.621, "Leishmania in macrophages": -28.91}
{"compound": "Cn1cnc(S(=O)(=O)N2CC3(CCN(c4ccccc4)C3)C2)c1", "CoaBC": -0.1238, "LiHisRS": 39.6}

Some entries from above, unchanged:

{"compound": "O=C(Nc1cnc(C2CC2)nc1)N1CCCC1", "CoaBC": -4.555, "LiHisRS": -3.125, "Leishmania in macrophages": -5.585}
{"compound": "COc1ccc(OC)c(-n2cnnc2COC(C)C)c1", "CoaBC": 4.234, "LiHisRS": 15.15, "Leishmania in macrophages": 22.34}
{"compound": "O=C(Cc1csc(N2CCNC2=O)n1)NC(c1ccccc1)C1CC1", "stereo": "stereo not given", "CoaBC": -4.348, "LiHisRS": 9.091, "Leishmania in macrophages": 9.324}
{"compound": "CCOCC1CN(S(=O)(=O)CC)Cc2cnn(CC3CC3)c21", "stereo": "stereo not given", "CoaBC": 2.589, "LiHisRS": 22.58}